Measured values taken from patent US9422248B2 (University of Iowa Research Foundation, priority 2012, dated 2016).

System: 6 Hz (32 mA) model
Experiment: 6 Hz (32 mA) psychomotor seizure model of partial epilepsy
Assay type: in vivo, mouse
Details: for PI (protective index, TD50/ED50): 6 Hz (32 mA) ED50, rotorod TD50; for Time to peak effect: 6 Hz (32 mA), ip
Excerpt: All compounds (FIG. 1) were screened in three whole mouse models: the maximal electroshock model (MES), the scMET test (pentylenetetrazole, Metrazol), and the 6 Hz psychomotor seizure model of partial epilepsy (32 mA). Adult male CF No 1 albino mice (26-30 g) were used for the 6 Hz test and 18-25 g mice were used in the MES and scMet tests. The animals are housed, fed, and handled in a manner consistent with the recommendations in the National Council Publication, “Guide for the Care and Use of Laboratory Animals”. The animal studies were performed by the NINDS Anticonvulsant Screening Program under IACUC number 09-12014. All compounds were administered ip in polyethylene glycol, 30%.
The 6 Hz test (also known as the minimal clonic seizure, or psychomotor test) involved delivering a corneal stimulus of 32 mA for 3 s. This current elicits psychomotor seizures in 97% of untreated animals. Seizures consist of a minimal clonic phase followed by stereotyped automatistic behaviors. Animals not showing such behaviors were considered protected. Toxicity was determined by the rotorod test. For this test, the animal is placed on a rotorod at 6 rpm following dosing. The animal is considered toxic if it falls off the rotorod three times in a 1 min period. The ED50, TD50 and confidence intervals were determined by probit analysis.

SMILES | PI (protective index, TD50/ED50) | Time to peak effect [h]
CCC(C)c1cc(C(O)C(F)(F)F)cc(Br)c1O (centres unmarked) [RM129, 2-Bromo-6-sec-Butyl-4-(2,2,2-trifluoro-1-hydroxy-ethyl)-phenol] | 1.7 | 0.5
CC(C)c1cc(C(O)C(F)(F)F)ccc1O (centres unmarked) [RM125, 2-iso-Propyl-4-(2,2,2-trifluoro-1-hydroxy-ethyl)-phenol] | 1.9 | 0.25
CCC(C)c1cc(C(O)C(F)(F)F)ccc1O (centres unmarked) [RM131, 2-sec-Butyl-4-(2,2,2-trifluoro-1-hydroxy-ethyl)-phenol] | 1.6 | 0.5
CC(C)c1cc(C(O)C(F)(F)F)cc(Br)c1O (centres unmarked) [RM122, 2-Bromo-6-isopropyl-4-(2,2,2-trifluoro-1-hydroxy-ethyl)-phenol] | 3.6 | 0.5
